From PubChem BioAssay AID540276 (National Center for Advancing Translational Sciences (NCATS), 2011)
Screen size: about 300,000 compounds; about 5,400 (1.8%) were called active. This list was built around the results that the source calls inconclusive (neither active nor inactive); the mix of calls is not that of the screen. Calls follow the shape of the full dose curve; tested in HEK293 cells. Where the call is inconclusive, the potency comes from a doubtful curve fit.

assay: qHTS for inhibitors of binding or entry into cells for Marburg Virus; settings: Marburg virus pseudotyped entry inhibition, cell reporter; series mostly up to 37.8 µM
Potency is read from the fitted curve at half-maximal effect.

| SMILES | Potency |
| --- | --- |
| CCCn1nnnc1NCc1ccc(Cl)cc1Cl | inactive |
| O=C(Nc1c2c(nn1-c1ccccc1)CS(=O)(=O)C2)c1cc2ccccc2o1 | inconclusive: 5.62 µM [activator, single point] |
| COc1cccc(NC(=O)COc2cccnc2[N+](=O)[O-])c1 | inconclusive: 35.5 µM [activator, single point] |
| C/C(=N\NC(=O)C(N)=O)c1ccc2c(c1)OCCO2 | inconclusive: 31.6 µM [activator, single point] |
| c1ccc2cc(N3CCCCC3)ccc2c1 | inactive |
| Cc1cccc(NC(=O)c2ccc(CN3CCN(Cc4ccccc4)CC3)cc2)c1 | inactive |
| COc1ccc(/C=C2\SC(=S)N(CCC(=O)N3CCCCC3)C2=O)cc1 | inconclusive: 1.12 µM [inhibitor, full curve, poor fit] |
| CCOC(=O)N1CCN(C(=O)Cn2nc(C)n3nc(-c4ccccc4)cc3c2=O)CC1 | inconclusive: 0.631 µM [activator, full curve, poor fit] |
| CCC(C(=O)NC1CCCC1)N(C(=O)Cn1nnc(-c2ccc(C)o2)n1)c1cnc2ccccc2c1 (centres undefined) | inconclusive: 16.4 µM [inhibitor, partial curve] |
| CC(C)(O)[C@@H]1Cc2c(ccc3ccc(=O)oc23)O1 | inactive |
| COc1ccc(C2C(C(=O)Nc3cc(OC)c(OC)c(OC)c3)c3ccccc3C(=O)N2C)cc1 (centres undefined) | inconclusive: 1 µM [inhibitor, full curve, poor fit] |
| CNC(=O)/C(C#N)=C/c1cc(C)n(-c2ccc(N3CCOCC3)cc2)c1C | inactive |
| CC(C)(C)NC(=O)C(c1ccco1)N(C(=O)Cn1nnc(-c2ccc(F)cc2)n1)c1cccc(F)c1 (centres undefined) | inactive |
| COc1cc2c(cc1NC(=O)COc1ccccc1OC)oc1ccccc12 | inactive |
| COc1ccccc1NC(=S)NNC(=O)c1ccccc1 | inconclusive: 8.2 µM [activator, partial curve, poor fit] |
| Cc1cccc(/C(N)=N/OC(=O)C23CC4CC(CC(C4)C2)C3)c1 | inconclusive: 23.1 µM [activator, single point] |
| COc1ccc(-c2nc(CSCC(=O)N3CCN(c4cccc(C)c4)C(C)C3)c(C)o2)cc1OC (centres undefined) | inconclusive: 29.1 µM [inhibitor, single point] |
| Cc1ccc(-n2c(SCc3nc(-c4ccc(Cl)cc4)no3)nnc2-c2ccncc2)cc1 | inconclusive: 3.98 µM [inhibitor, single point] |
| Cc1ccc(C)c(NC(=S)NC(NC(=O)Cc2ccccc2)C(Cl)(Cl)Cl)c1 (centres undefined) | inconclusive: 25.1 µM [inhibitor, single point] |
